# According to article PMC9534863:
# Chains of the proteins cited; added tags and fusions are not shown. Residues count along the entry.
# UniProt P10909, residues 23-449: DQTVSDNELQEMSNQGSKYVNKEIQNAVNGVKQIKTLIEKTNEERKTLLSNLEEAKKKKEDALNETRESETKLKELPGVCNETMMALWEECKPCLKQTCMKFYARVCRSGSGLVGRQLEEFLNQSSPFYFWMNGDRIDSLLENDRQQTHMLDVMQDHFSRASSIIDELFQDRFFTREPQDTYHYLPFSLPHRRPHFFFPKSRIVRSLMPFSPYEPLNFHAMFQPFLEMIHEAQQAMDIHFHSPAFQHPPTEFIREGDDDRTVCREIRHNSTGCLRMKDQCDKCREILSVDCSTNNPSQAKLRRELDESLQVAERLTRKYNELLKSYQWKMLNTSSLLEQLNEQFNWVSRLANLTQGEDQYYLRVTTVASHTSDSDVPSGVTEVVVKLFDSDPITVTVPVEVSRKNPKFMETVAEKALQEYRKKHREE
# No constants are given. Whether binding was seen depends on the method and setting. Binding seen in cells or lysates may run through a third protein. Some results given as binding are weak or reduced against the parent protein; the word gives no strength.
# T1: Activin receptor-like kinase 5 (ALK5) (human (endogenous in LF cells)) (UniProt P36897)
# T1 sequence: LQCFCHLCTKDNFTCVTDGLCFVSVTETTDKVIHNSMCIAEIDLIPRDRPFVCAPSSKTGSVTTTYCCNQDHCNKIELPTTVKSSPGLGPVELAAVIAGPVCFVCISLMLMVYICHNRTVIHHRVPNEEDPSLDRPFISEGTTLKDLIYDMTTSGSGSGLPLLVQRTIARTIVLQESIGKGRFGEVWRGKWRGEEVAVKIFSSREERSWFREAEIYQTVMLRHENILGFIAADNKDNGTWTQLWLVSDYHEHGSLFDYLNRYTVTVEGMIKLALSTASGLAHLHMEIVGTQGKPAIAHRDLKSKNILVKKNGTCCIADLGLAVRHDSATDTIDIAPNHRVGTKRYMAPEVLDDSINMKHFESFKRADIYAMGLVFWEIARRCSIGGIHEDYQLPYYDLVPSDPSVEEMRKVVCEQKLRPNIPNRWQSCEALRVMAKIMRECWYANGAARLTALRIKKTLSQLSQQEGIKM
# T2: protein kinase D3 (PRKD3) (human (endogenous in LF cells)) (UniProt O94806)
# T2 sequence: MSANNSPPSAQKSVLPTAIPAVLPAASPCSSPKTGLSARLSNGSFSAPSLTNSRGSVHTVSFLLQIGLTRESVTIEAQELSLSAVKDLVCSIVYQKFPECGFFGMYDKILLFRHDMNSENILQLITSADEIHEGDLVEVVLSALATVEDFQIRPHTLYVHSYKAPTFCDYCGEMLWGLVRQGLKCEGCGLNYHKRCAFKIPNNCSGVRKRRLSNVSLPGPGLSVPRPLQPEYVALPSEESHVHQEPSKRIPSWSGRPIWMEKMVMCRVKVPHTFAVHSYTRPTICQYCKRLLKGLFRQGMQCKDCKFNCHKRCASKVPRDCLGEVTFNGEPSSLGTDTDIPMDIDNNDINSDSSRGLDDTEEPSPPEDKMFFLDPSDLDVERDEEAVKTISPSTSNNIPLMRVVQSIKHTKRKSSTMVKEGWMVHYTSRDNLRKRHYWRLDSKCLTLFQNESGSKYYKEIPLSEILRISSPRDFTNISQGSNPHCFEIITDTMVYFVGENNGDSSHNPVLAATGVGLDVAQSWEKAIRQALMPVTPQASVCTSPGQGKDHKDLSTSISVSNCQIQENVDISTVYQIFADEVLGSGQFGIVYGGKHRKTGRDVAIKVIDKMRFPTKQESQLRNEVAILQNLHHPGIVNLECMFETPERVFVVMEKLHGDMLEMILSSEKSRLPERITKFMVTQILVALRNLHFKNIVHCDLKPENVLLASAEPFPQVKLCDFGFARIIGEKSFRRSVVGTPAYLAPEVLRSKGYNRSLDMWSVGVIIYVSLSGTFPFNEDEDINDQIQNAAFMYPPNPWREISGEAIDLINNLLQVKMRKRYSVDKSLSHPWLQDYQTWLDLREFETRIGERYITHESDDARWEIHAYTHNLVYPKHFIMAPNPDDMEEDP
# Tests used:
# Assay in all cases: co-IP; endogenous proteins in LF cell lysate (lysis buffer, Beyotime); antibody 4 °C 2 h, then protein A/G agarose 2 h, 5 washes with lysis buffer, elution in SDS loading buffer, western blot; for CLU and ALK5 the cells were treated with 5 ng/ml TGF-β1 for 24 h beforehand
# [1] = target: T1, Activin receptor-like kinase 5 (ALK5) (human (endogenous in LF cells))
# [2] = target: T2, protein kinase D3 (PRKD3) (human (endogenous in LF cells))
# [3] = target: clusterin (CLU) (human (endogenous in LF cells)) (UniProt P10909)
binding [1],binding [2],binding [3],Molecule
binds,binds,,clusterin (CLU) (from UniProt P10909 23-449)
,,binds,"protein kinase D3 (PRKD3) (enzyme, UniProt O94806 1-890) MSANNSPPSAQKSVLPTAIPAVLPAASPCSSPKTGLSARLSNGSFSAPSLTNSRGSVHTVSFLLQIGLTRESVTIEAQELSLSAVKDLVCSIVYQKFPECGFFGMYDKILLFRHDMNSENILQLITSADEIHEGDLVEVVLSALATVEDFQIRPHTLYVHSYKAPTFCDYCGEMLWGLVRQGLKCEGCGLNYHKRCAFKIPNNCSGVRKRRLSNVSLPGPGLSVPRPLQPEYVALPSEESHVHQEPSKRIPSWSGRPIWMEKMVMCRVKVPHTFAVHSYTRPTICQYCKRLLKGLFRQGMQCKDCKFNCHKRCASKVPRDCLGEVTFNGEPSSLGTDTDIPMDIDNNDINSDSSRGLDDTEEPSPPEDKMFFLDPSDLDVERDEEAVKTISPSTSNNIPLMRVVQSIKHTKRKSSTMVKEGWMVHYTSRDNLRKRHYWRLDSKCLTLFQNESGSKYYKEIPLSEILRISSPRDFTNISQGSNPHCFEIITDTMVYFVGENNGDSSHNPVLAATGVGLDVAQSWEKAIRQALMPVTPQASVCTSPGQGKDHKDLSTSISVSNCQIQENVDISTVYQIFADEVLGSGQFGIVYGGKHRKTGRDVAIKVIDKMRFPTKQESQLRNEVAILQNLHHPGIVNLECMFETPERVFVVMEKLHGDMLEMILSSEKSRLPERITKFMVTQILVALRNLHFKNIVHCDLKPENVLLASAEPFPQVKLCDFGFARIIGEKSFRRSVVGTPAYLAPEVLRSKGYNRSLDMWSVGVIIYVSLSGTFPFNEDEDINDQIQNAAFMYPPNPWREISGEAIDLINNLLQVKMRKRYSVDKSLSHPWLQDYQTWLDLREFETRIGERYITHESDDARWEIHAYTHNLVYPKHFIMAPNPDDMEEDP"
,,binds,"Activin receptor-like kinase 5 (ALK5) (receptor, UniProt P36897 34-503) LQCFCHLCTKDNFTCVTDGLCFVSVTETTDKVIHNSMCIAEIDLIPRDRPFVCAPSSKTGSVTTTYCCNQDHCNKIELPTTVKSSPGLGPVELAAVIAGPVCFVCISLMLMVYICHNRTVIHHRVPNEEDPSLDRPFISEGTTLKDLIYDMTTSGSGSGLPLLVQRTIARTIVLQESIGKGRFGEVWRGKWRGEEVAVKIFSSREERSWFREAEIYQTVMLRHENILGFIAADNKDNGTWTQLWLVSDYHEHGSLFDYLNRYTVTVEGMIKLALSTASGLAHLHMEIVGTQGKPAIAHRDLKSKNILVKKNGTCCIADLGLAVRHDSATDTIDIAPNHRVGTKRYMAPEVLDDSINMKHFESFKRADIYAMGLVFWEIARRCSIGGIHEDYQLPYYDLVPSDPSVEEMRKVVCEQKLRPNIPNRWQSCEALRVMAKIMRECWYANGAARLTALRIKKTLSQLSQQEGIKM"
